Measured values taken from US20230356105A1, “TETRAAZADODECANE BASED CHELATING AGENTS FOR SEPARATION OF RARE EARTH ELEMENTS AND METHOD THEREFOR” (Ustav Organicke Chemie a Biochemie AV CR V.V.I., priority 2020, published 2023).

Experiments:
Type in all cases: physicochemical
[1] = Separation of binary mixture of rare-earth metals by precipitation from solution using L1 (Example 7); details: supernatant
Experimental: Two series of reaction mixtures were prepared, where one rare-earth metal was held constant (Gd or Lu) while the other was a variable rare-earth metal element (except Pm). […] The well plate was sealed with transparent adhesive tape to prevent evaporation and was anchored to a shaker. The well-plate was shaken for 5 days at room temperature at 900 rpm.

[2] = Separation of binary mixture of rare-earth metals by precipitation using L1, MOPS pH 8.5 (Example 8); details: supernatant
Experimental: Analogous to Example 7), the well plate was then centrifuged and concentrations of the metals were determined using ICP-OES. The resulting concentrations of both metals in the supernatants and their ratios are summarized in […]

[3] = Separation of industrially relevant binary mixtures by precipitation using L1, L2 and L3 (Example 10); details: supernatant
Experimental: Analogous to Example 7), three sets of reaction mixtures with two metals and either compound L1, L2, or L3 were prepared in a 96-well plate with the following differences: each well was equipped with one PTFE-coated magnetic stir bar, the well plate was sealed with a silicon cover, and the reaction mixtures were stirred on a magnetic stirrer for 2 days at room temperature. Analogous to Example 7), the well plate was then centrifuged and concentrations of the metals were determined using ICP-OES. […] It is evident from the results that certain degrees of enrichment are achieved for very different combinations of metals, and that ligands L1, L2, and L3 have different selectivities for given combinations of metals.

[4] = Separation of Y/Tb mixture by repeated precipitation using L2 (Example 14)
Experimental: The experiment was conducted according to Example 11) with 9 identical reaction mixtures containing Y, Tb, and compound L2. The experimental procedure was identical to that of Example 11). The resulting absolute concentrations of both metals in the supernatants and precipitates, as well as calculated values of separation factor Y/Tb according to the formula from Example 11), are summarized in Table 8. The average separation factor value was 3.34.

[5] = Separation of binary mixture of rare-earth metals by precipitation using L6 (Example 9); details: supernatant
[6] = Use of additives to improve separation of Nd/Dy mixture by precipitation with L5 (Example 18); details: 11 mM L5
Experimental: Stock solutions were pipetted into plastic 1×1 cm cuvettes to prepare reaction mixtures with concentrations as follows: • 1. […] 5 mM NdCl3 • 3. 5 mM DyCl3 • 4. 500 mM MOPS pH=7 • 5. the additive of interest, in a variable concentration; if possible, stock solutions were prepared from Na^+ salt forms of the compound; if not, the stock solutions were titrated by NaOH/HCl to pH=7 prior to addition (see Table 12 for additives and concentrations)
These aqueous reaction mixtures, each prepared to a total volume of 2.0 mL with the addition of water as necessary, were mixed by the use of a PTFE-coated stir bar on a magnetic stirrer. The cuvettes were sealed with transparent tape to prevent evaporation overnight. The reaction mixtures were stirred for 18 hours, at which point 500 μL aliquots of each reaction mixture were transferred into plastic 2 mL Eppendorf tubes and centrifuged. The supernatants were carefully pipetted out and transferred to a new set of tubes. The precipitate was dissolved by addition of 500 μL 1M HCl. The absolute concentration of Nd and Dy in each supernatant and precipitate was determined by ICP-OES.

`O=C(O)CN1CCN(CC(=O)O)CCN(Cc2ccccc2)CCN(CC(=O)O)CC1` [L1, 2,2′,2″-(10-benzyl-1,4,7,10-tetraazacyclododecane-1,4,7-triyl)triacetic Acid] showed an M1/Gd ([1]; M1=Ce) of 2.34, an M1/Lu ([1]; M1=Ce) of 1.00 and an M1/Gd ([1]; M1=Dy) of 1.76. It also gave an M1/Lu ([1]; M1=Dy) of 1.00, an M1/Gd ([1]; M1=Er) of 1.11 and an M1/Lu ([1]; M1=Er) of 1.05. For the same molecule, the M1/Gd ([1]; M1=Eu) was 1.11, the M1/Lu ([1]; M1=Eu) was 0.91 and the M1/Gd ([1]; M1=Gd) was 1.00. The M1/Lu ([1]; M1=Gd) was 0.08, the M1/Gd ([1]; M1=Ho) was 2.38 and the M1/Lu ([1]; M1=Ho) was 0.96. It also gave an M1/Gd ([1]; M1=La) of 3.99, an M1/Lu ([1]; M1=La) of 0.96 and an M1/Gd ([1]; M1=Lu) of 16.94. For the same molecule, the M1/Lu ([1]; M1=Lu) was 1.00, the M1/Gd ([1]; M1=Nd) was 1.47 and the M1/Lu ([1]; M1=Nd) was 0.11. It also gave an M1/Gd ([1]; M1=Pr) of 1.66, an M1/Lu ([1]; M1=Pr) of 0.98 and an M1/Gd ([1]; M1=Sc) of 19.94. For the same molecule, the M1/Lu ([1]; M1=Sc) was 1.12, the M1/Gd ([1]; M1=Sm) was 1.08 and the M1/Lu ([1]; M1=Sm) was 0.07. The M1/Gd ([1]; M1=Tb) was 1.45, the M1/Lu ([1]; M1=Tb) was 1.03 and the M1/Gd ([1]; M1=Tm) was 11.10. The M1/Lu ([1]; M1=Tm) was 1.01, the M1/Gd ([1]; M1=Y) was 2.57 and the M1/Lu ([1]; M1=Y) was 1.01. The M1/Gd ([1]; M1=Yb) was 15.12, the M1/Lu ([1]; M1=Yb) was 1.02 and the M1/Tm ([2]; M1=Ce) was 0.21. The M1/Tm ([2]; M1=Dy) was 0.15, the M1/Tm ([2]; M1=Er) was 0.82 and the M1/Tm ([2]; M1=Eu) was 0.12. The M1/Tm ([2]; M1=Gd) was 0.14, the M1/Tm ([2]; M1=Ho) was 0.22 and the M1/Tm ([2]; M1=La) was 0.25. For the same molecule, the M1/Tm ([2]; M1=Lu) was 1.60, the M1/Tm ([2]; M1=Nd) was 0.17 and the M1/Tm ([2]; M1=Pr) was 0.15. The M1/Tm ([2]; M1=Sc) was 1.14, the M1/Tm ([2]; M1=Sm) was 0.10 and the M1/Tm ([2]; M1=Tb) was 0.10. The M1/Tm ([2]; M1=Tm) was 1.00, the M1/Tm ([2]; M1=Y) was 0.20 and the M1/Tm ([2]; M1=Yb) was 1.19. The M1/M2 ([3]; M1/M2=Eu/Y) was 0.45, the M1/M2 ([3]; M1/M2=La/Ce) was 1.55 and the M1/M2 ([3]; M1/M2=Nd/Ce) was 10.45. The M1/M2 ([3]; M1/M2=Nd/Dy) was 0.68, the M1/M2 ([3]; M1/M2=Nd/La) was 0.32 and the M1/M2 ([3]; M1/M2=Nd/Pr) was 0.93. It also gave an M1/M2 ([3]; M1/M2=Nd/Tb) of 2.29, an M1/M2 ([3]; M1/M2=Pr/Ce) of 0.65 and an M1/M2 ([3]; M1/M2=Pr/Dy) of 1.38. The M1/M2 ([3]; M1/M2=Pr/La) was 0.43, the M1/M2 ([3]; M1/M2=Tb/Dy) was 0.76 and the M1/M2 ([3]; M1/M2=Tb/Eu) was 1.30. For the same molecule, the M1/M2 ([3]; M1/M2=Tb/Pr) was 0.55 and the M1/M2 ([3]; M1/M2=Tb/Y) was 0.40.
`O=C(O)CN1CCNCCN(CC(=O)O)CCN(Cc2cc([N+](=O)[O-])ccc2O)CC1` [L2, 2,2′(4-(2-hydroxy-5-nitrobenzyl)-1,4,7,10-tetraazacyclododecane-1,7-diyl)Diacetic Acid] showed an M1/M2 ([3]; M1/M2=Eu/Y) of 0.48, an M1/M2 ([3]; M1/M2=La/Ce) of 1.11 and an M1/M2 ([3]; M1/M2=Nd/Ce) of 0.55. For the same molecule, the M1/M2 ([3]; M1/M2=Nd/Dy) was 0.89, the M1/M2 ([3]; M1/M2=Nd/La) was 2.05 and the M1/M2 ([3]; M1/M2=Nd/Pr) was 0.98. For the same molecule, the M1/M2 ([3]; M1/M2=Nd/Tb) was 1.07, the M1/M2 ([3]; M1/M2=Pr/Ce) was 0.95 and the M1/M2 ([3]; M1/M2=Pr/Dy) was 1.00. The M1/M2 ([3]; M1/M2=Pr/La) was 1.06, the M1/M2 ([3]; M1/M2=Tb/Dy) was 0.39 and the M1/M2 ([3]; M1/M2=Tb/Eu) was 1.24. For the same molecule, the M1/M2 ([3]; M1/M2=Tb/Pr) was 0.90, the M1/M2 ([3]; M1/M2=Tb/Y) was 0.57 and the “average separation factor value Y/Tb” value ([4]; all samples) was 3.34. The “Separation factor Y/Tb” value ([4]; group A, 1st precipitation) was 3.69 and 3.52 and 3.30, the “Separation factor Y/Tb” value ([4]; group B, 2nd precipitation) was 3.23 and 2.64 and the “Separation factor Y/Tb” value ([4]; group C, 3rd precipitation) was 4.79 and 2.73.
`O=C(O)CN1CCNCCN(CC(=O)O)CCN(Cc2ccc(C(=O)O)cc2)CC1` [L3, 2,2′-(4-(4-carboxybenzyl)-1,4,7,10-tetraazacyklododekane-1,7-diyl)Diacetic Acid] gave an M1/M2 ([3]; M1/M2=Eu/Y) of 0.21, an M1/M2 ([3]; M1/M2=La/Ce) of 3.08 and an M1/M2 ([3]; M1/M2=Nd/Ce) of 0.00. For the same molecule, the M1/M2 ([3]; M1/M2=Nd/Dy) was 0.00, the M1/M2 ([3]; M1/M2=Nd/La) was 0.00 and the M1/M2 ([3]; M1/M2=Nd/Pr) was 0.00. The M1/M2 ([3]; M1/M2=Nd/Tb) was 1.00, the M1/M2 ([3]; M1/M2=Pr/Ce) was 2.86 and the M1/M2 ([3]; M1/M2=Pr/Dy) was 0.53. The M1/M2 ([3]; M1/M2=Pr/La) was 0.14, the M1/M2 ([3]; M1/M2=Tb/Dy) was 0.37 and the M1/M2 ([3]; M1/M2=Tb/Eu) was 1.06. The M1/M2 ([3]; M1/M2=Tb/Pr) was 0.83 and the M1/M2 ([3]; M1/M2=Tb/Y) was 0.23.
Work on `O=C(O)CN1CCN(CC(=O)O)CCN(Cc2ccc(-c3ccccc3)cc2)CCN(CC(=O)O)CC1` [L6, 2,2′,2″-(10-([1,1′-biphenyl]-4-ylmethyl)-1,4,7,10-tetraazacyclododecane-1,4,7-triyl)triacetic acid] yielded an M1/Nd ([5]; M1=Ce) of 1.07, an M1/Nd ([5]; M1=Dy) of 3.41 and an M1/Nd ([5]; M1=Er) of 2.89. The M1/Nd ([5]; M1=Eu) was 1.26, the M1/Nd ([5]; M1=Gd) was 1.18 and the M1/Nd ([5]; M1=Ho) was 3.14. For the same molecule, the M1/Nd ([5]; M1=La) was 1.02, the M1/Nd ([5]; M1=Lu) was 3.84 and the M1/Nd ([5]; M1=Nd) was 1.00. The M1/Nd ([5]; M1=Pr) was 0.94, the M1/Nd ([5]; M1=Sc) was 4.06 and the M1/Nd ([5]; M1=Sm) was 1.06. For the same molecule, the M1/Nd ([5]; M1=Tb) was 2.40, the M1/Nd ([5]; M1=Tm) was 3.90 and the M1/Nd ([5]; M1=Y) was 1.09. The M1/Nd ([5]; M1=Yb) was 4.53.
For `CC(=O)O` [acetate], the “Separation factor (Dy/Nd)” value ([6]; additive 50 mM) was 19.0, the “Separation factor (Dy/Nd)” value ([6]; additive 100 mM) was 35.3 and the “Separation factor (Dy/Nd)” value ([6]; additive 250 mM) was 14.4. For the same molecule, the “Separation factor (Dy/Nd)” value ([6]; additive 500 mM) was 1.1.

Values joined by “and” are separate entries in the source; they are usually repeats but may differ in a detail not shown here. Identical values can stand only once.
